Measured values as given in PubChem BioAssay AID504834 (National Center for Advancing Translational Sciences (NCATS), 2011).
Hit rate of the full screen: of about 320,000 compounds, about 22,000 (6.9%) were called active. The shares of active, inactive and inconclusive entries below differ from those in the screen. Calls follow the shape of the dose curve; as a rule, active = well fitted inhibition curve with a large enough effect; inconclusive = small, poorly fitted or top-dose-only effect, or another doubt; inactive = no such curve, though single readings can be large or run the other way. A potency beside an inconclusive call is a rough fit, not a confirmed value.

Assay: Primary qHTS for delayed death inhibitors of the malarial parasite plastid, 96 hour incubation
Conditions: P. falciparum luciferase reporter growth; series mostly up to 28.7 µM; activity change, negative = inhibition: at the top concentration
Method in brief: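 P. falciparum expressing integrated firefly luciferase grown in erythrocytes (2% hematocrit, 0.05% parasitemia final) with compounds for 96 hours at 37 C, 5% CO2. Growth inhibition read as loss of luminescence after adding luciferase detection reagent.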
% is scaled to controls: 0 for no effect and ±100 for the full control effect; potency is read from the fitted curve at half-maximal effect.

Row | SMILES | activity change, negative = inhibition | Potency
1 | Cc1ccc(NC(=O)CCNC(=O)c2ccccc2Cl)cc1S(=O)(=O)N(C)C | inactive: -8.9% | –
2 | COc1ccc(C2SCCN2S(=O)(=O)c2ccccc2)cc1OC (stereo unspecified) | inactive: 31.4% | –
3 | CCOC(=O)c1c(NC(=O)CSc2nc3c(c(=O)n(C)c(=O)n3C)n2C(C)C)sc(C)c1C | – | inconclusive: 10.4 µM [inhibitor, partial curve, poor fit]
4 | S=C(Nc1ccccc1)c1ccccn1 | – | inconclusive: 0.0522 µM [inhibitor, full curve, poor fit]
5 | CCn1nnnc1SCC(=O)Nc1ccc2c(c1)OCCO2 | – | inconclusive: 13.1 µM [inhibitor, single point]
6 | CCN(CC)C(=S)Nc1ccc(C(=O)OC)cc1 | – | inconclusive: 18.5 µM [inhibitor, single point]
7 | CN1Cc2c(N3CCOCC3)nc(SCCC#N)c(C#N)c2CC1(C)C | – | inconclusive: 11.7 µM [inhibitor, single point]
8 | CCOC(=O)Cc1csc(NC(=O)c2cccnc2)n1 | inactive: -16.4% | –
9 | Cc1cccc(C(=O)Nc2nnc(S(=O)(=O)N3CCCCCC3)s2)c1 | – | inconclusive: 18.5 µM [inhibitor, single point]
10 | COc1ccc(Nc2nc(N3CCN(S(=O)(=O)N(C)C)CC3)nc3ccccc23)cc1 | – | active: 8.28 µM
11 | COC(=O)CSCC(=O)Nc1nnc(-c2cccc(C)c2)s1 | inactive: -0.432% | –
12 | Cc1cccc(C(=O)Nc2cccc(C(=O)Nc3cc(C)ccn3)c2)c1 | – | inconclusive: 18.5 µM [inhibitor, single point]
13 | COc1ccc(N2C3=C(CC4=C2CC(C)(C)CC4=O)C(=O)CC(C)(C)C3)cc1 | – | active: 13.1 µM
14 | Cc1noc(/C=C/N(C)C)c1S(=O)(=O)N1CCCC(C(=O)NC(C)c2ccccc2)C1 (stereo unspecified) | – | inconclusive: 0.0738 µM [inhibitor, full curve, poor fit]
15 | COc1ccc(Br)cc1CN1CCN(C(=O)c2ccc(OC)c(OC)c2)CC1 | – | inconclusive: 18.5 µM [inhibitor, single point]
16 | Cc1nn(Cc2ccccc2)c(Cl)c1C(=O)OCc1nnc(-c2ccccc2)o1 | – | inconclusive: 9.28 µM [inhibitor, single point]
17 | COC(=O)C1=C(c2ccc(Cl)c(C(F)(F)F)c2)C[C@@H]2CC[C@H]1N2C(=O)NCCOc1ccc(OC)cc1 | – | inconclusive: 1.65 µM [inhibitor, full curve, poor fit]
18 | COc1ccc(OC)c(NC(=O)C2CCCN2C(=O)NC2CCCCC2)c1 (stereo unspecified) | – | inconclusive: 3.29 µM [inhibitor, partial curve, poor fit]
19 | Cc1ccccc1-c1nnc(SC(C)C(=O)NC2CCCC2)o1 (stereo unspecified) | – | inconclusive: 18.5 µM [inhibitor, single point]
20 | FC(F)(F)c1cccc(Cc2noc(CN3CCCC(CN4CCCC4)C3)n2)c1 (stereo unspecified) | – | active: 9.28 µM
21 | O=C1NC(=O)C(=Cc2ccc(SC3CCCCC3)o2)C(=O)N1 | inactive: -37.7% [at 5.75 µM] | –

Row | SMILES | activity change, negative = inhibition | Potency
22 | O=C(CSc1n[nH]c(-c2cccnc2)n1)Nc1cccc(Cl)c1 | – | inconclusive: 18.5 µM [inhibitor, single point]
23 | CCN(CC)CCNC(=O)c1ccc(NC(=O)C2CC(=O)N(c3ccc4c(c3)OCCO4)C2)cc1 (stereo unspecified) | inactive: 3.78% | –
24 | COc1ccc(C(=O)Nc2nc3cc4c(cc3s2)OCO4)c(OC)c1 | inactive: 183% | –
25 | C#CCOCCOCCOCCNc1nc(N2CCN(C(=O)CCCCCCCCCCNC(=O)Cn3cc(C[C@@H](C)O)nn3)CC2)nc(N2CCN(C(=O)CCCCCCCCCCNC(=O)[C@@H](CCC(=O)O)n3cc(CCCCCN)nn3)CC2)n1 | – | inconclusive: 0.828 µM [inhibitor, partial curve, poor fit]
26 | CCOC(=O)C1(Cc2cccc(OC)c2)CCCN(S(=O)(=O)c2cccnc2)C1 (stereo unspecified) | – | inconclusive: 18.5 µM [inhibitor, single point]
27 | O=C(Cn1c(=O)cnc2ccccc21)NNC(=O)c1ccccc1Cl | inactive: 19.2% | –
28 | CS(=O)(=O)Nc1cccc(C2=NN(S(=O)(=O)c3ccccc3)C(c3cccs3)C2)c1 (stereo unspecified) | – | inconclusive: 11.7 µM [inhibitor, partial curve]
29 | CC(C)N(C)C(=O)c1ccc(OC2CCN(CCc3ccccc3)CC2)cc1 | – | inconclusive: 18.5 µM [inhibitor, single point]
30 | CCn1nc(C)cc1C(=O)N1CCCC(Nc2ccc(C(C)C)cc2)C1 (stereo unspecified) | – | inconclusive: 0.0147 µM [inhibitor, full curve, poor fit]
31 | Cn1cccc1Cc1nnc(SCC(=O)NCc2ccccc2)n1-c1ccc(F)cc1 | – | inconclusive: 3.7 µM [inhibitor, single point]
32 | CCOc1ccc(CCNC(=O)COC(=O)c2c(C)nn(-c3ccccc3)c2C)cc1OCC | – | inconclusive: 7.38 µM [inhibitor, partial curve, poor fit]
33 | Cc1nc2ccccc2c2c1C(=O)N(C)C2=O | – | inconclusive: 13.1 µM [inhibitor, single point]
34 | CCN(CC)C(=O)Cn1cc(S(=O)(=O)CC(=O)Nc2ccc(C(N)=O)cc2)c2ccccc21 | – | inconclusive: 18.5 µM [inhibitor, single point]
35 | CCC1C(=O)n2nc(-c3ccccc3)cc2N=C1C (stereo unspecified) | – | inconclusive: 0.928 µM [inhibitor, full curve]
36 | Cc1ccccc1C(C(=O)NCc1ccco1)N(CC1CCCO1)C(=O)Cn1nnc2ccccc21 (stereo unspecified) | – | inconclusive: 0.0026 µM [inhibitor, full curve, poor fit]
37 | CC1CCCC(NC(=O)c2ccc3snnc3c2)C1C (stereo unspecified) | inactive: 20.3% | –
38 | C#CCOCCOCCOCCNc1nc(N2CCN(C(=O)CCCCCCCCCCNC(=O)Cn3cc(CCCCCN)nn3)CC2)nc(N2CCN(C(=O)CCCCCCCCCCNC(=O)Cn3cc(CCCCCN)nn3)CC2)n1 | – | active: 6.57 µM
39 | Cc1cccc(C(=O)Nc2ccc(N3CCN(S(C)(=O)=O)CC3)cc2)c1 | inactive: 35.3% | –
40 | CCC(C(=O)NC(C)(C)C)N(C(=O)Cn1nnc(-c2ccccc2F)n1)c1cccc2c1CCCC2 (stereo unspecified) | – | inconclusive: 20.8 µM [inhibitor, partial curve, poor fit]
41 | CCOC(=O)N1CCN(C(=O)C2CCN(C(=O)c3ccc([N+](=O)[O-])cc3)CC2)CC1 | – | inconclusive: 18.5 µM [inhibitor, single point]
